For the assay, the target named is PKM2 (mouse (endogenous in splenic B cells of C57BL/6J mice)) (UniProt P52480). Briefly: co-IP; extracts of purified CD19+ splenic B cells from C57BL/6J mice cultured with or without Hcy (100 μmol/L) for 24 h; immunoprecipitation with an antibody against PKM2, IgG as negative control; CREB1 detected by Western blot.

The chains behind the UniProt entries cited, without tags or fusion partners.
UniProt P52480: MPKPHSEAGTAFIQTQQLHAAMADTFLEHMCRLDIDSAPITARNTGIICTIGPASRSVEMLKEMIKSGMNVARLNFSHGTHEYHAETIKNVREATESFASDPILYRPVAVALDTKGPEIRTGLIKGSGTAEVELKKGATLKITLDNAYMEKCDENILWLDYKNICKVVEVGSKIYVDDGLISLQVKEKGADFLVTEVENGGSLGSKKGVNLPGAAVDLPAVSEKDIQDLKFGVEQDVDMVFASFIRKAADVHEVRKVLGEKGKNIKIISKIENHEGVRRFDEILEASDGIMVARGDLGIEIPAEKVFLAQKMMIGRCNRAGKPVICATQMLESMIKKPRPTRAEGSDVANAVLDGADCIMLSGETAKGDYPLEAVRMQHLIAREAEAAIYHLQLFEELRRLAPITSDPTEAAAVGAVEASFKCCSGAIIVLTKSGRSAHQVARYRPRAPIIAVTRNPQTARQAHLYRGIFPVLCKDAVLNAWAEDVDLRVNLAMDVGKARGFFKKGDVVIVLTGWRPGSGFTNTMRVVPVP
UniProt Q01147: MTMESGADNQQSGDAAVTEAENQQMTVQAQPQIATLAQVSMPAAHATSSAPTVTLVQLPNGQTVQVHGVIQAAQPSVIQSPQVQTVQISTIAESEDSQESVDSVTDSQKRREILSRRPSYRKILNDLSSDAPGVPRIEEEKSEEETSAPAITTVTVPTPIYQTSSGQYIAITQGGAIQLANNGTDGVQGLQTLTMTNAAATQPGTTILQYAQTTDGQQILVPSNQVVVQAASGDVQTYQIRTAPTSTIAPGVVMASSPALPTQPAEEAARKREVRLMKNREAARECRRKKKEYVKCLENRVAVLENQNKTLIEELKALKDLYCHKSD

These are yes or no findings as the source states them, for the method shown. Binding seen in cells or lysates may run through a third protein. Some binding calls cover weakened binding; strength is not graded here.

These results are taken from paper PMC9226200.

Consider “cyclic AMP-responsive element-binding protein 1 (from UniProt Q01147 1-327)”, for which the binding result is reported as “binds”.
